Here are results for 3 substances from patent publication US20050008751A1, “Fermented milk product” (Unilever Bestfoods, North America, priority 2001, published 2005).

Ends that are not written are not given here.

This series can be described thus: Concentration of active peptides in fermented milk (standard addition flow injection MRM). The conditions noted are these: typical measured concentration in fermented milk.
Turning to DKIHPF, the Concentration turned out to be 1.8 mg/L.
Take KVLPVP [Lys-Val-Leu-Pro-Val-Pro]: the Concentration worked out at 0.1 mg/L.
Turning to KVLPVPQ [Lys-Val-Leu-Pro-Val-Pro-Gln], the Concentration stood at 0.9 mg/L.
